Among the data in article PMC7553298 are binding values, retold here.

By UniProt entry, the sequences of proteins in these tests, tags left out. Where a name states a change or a piece, a line headed by the entry shows the natural chain unless it says otherwise.
UniProt P17302: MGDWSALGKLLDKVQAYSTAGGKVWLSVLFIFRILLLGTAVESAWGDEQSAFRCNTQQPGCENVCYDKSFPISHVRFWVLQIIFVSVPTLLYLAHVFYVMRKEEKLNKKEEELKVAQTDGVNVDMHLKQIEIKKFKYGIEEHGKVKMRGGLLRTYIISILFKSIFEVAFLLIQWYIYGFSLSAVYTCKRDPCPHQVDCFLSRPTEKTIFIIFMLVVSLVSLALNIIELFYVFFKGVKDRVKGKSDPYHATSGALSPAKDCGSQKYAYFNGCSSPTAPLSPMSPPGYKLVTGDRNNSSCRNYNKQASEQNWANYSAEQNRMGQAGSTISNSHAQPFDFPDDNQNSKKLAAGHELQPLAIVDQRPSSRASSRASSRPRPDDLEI
UniProt Q9NTQ9: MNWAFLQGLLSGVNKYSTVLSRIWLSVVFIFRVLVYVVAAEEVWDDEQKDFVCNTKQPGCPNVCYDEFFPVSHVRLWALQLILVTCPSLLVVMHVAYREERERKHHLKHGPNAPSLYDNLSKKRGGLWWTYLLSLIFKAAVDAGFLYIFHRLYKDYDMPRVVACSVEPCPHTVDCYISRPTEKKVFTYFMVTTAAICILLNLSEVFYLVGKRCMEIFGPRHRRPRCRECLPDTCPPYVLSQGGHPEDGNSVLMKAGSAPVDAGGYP

The target in assay [1] is HA-tagged GJA1 (gap junction protein A1, wild type) (human) (UniProt P17302). The experiment in a line: co-IP; Cos7 cells co-transfected with HA- and FLAG-tagged constructs; lysate in modified RIPA buffer (1% NP40, 150 mM NaCl, 0.05% deoxycholate); immunoprecipitation with anti-HA antibody and protein A-Sepharose at 4°C, washes with 500 mM NaCl; western blot (n = 3). Background: Immunoblotting shows a protein as a band on a membrane.

Assay [2] deals with HA-tagged GJB4-WT (human) (UniProt Q9NTQ9). The assay is described as above.

No constants are given. Whether binding was seen depends on the method and setting. In cells and extracts the contact can be indirect. Some entries that bind do so weakly or less than the wild type.

Regarding “FLAG-tagged GJB4-E204A (from UniProt Q9NTQ9 1-266)”, the binding result in assay [1] and in assay [2] was “binds” throughout.
On to “FLAG-tagged GJB4-WT (gap junction protein beta 4, wild type) (from UniProt Q9NTQ9 1-266)”, for which the binding entry in assay [1] and in assay [2] was “binds” in each case.
